Assay [1] concerns the target p53 (endogenous, HEK293 cells) (human (endogenous in HEK293)) (UniProt P04637). The experiment in a line: co-IP; endogenous proteins in HEK293 cells without external DNA damage; reciprocal, antibodies against SIRT6 and p53 with IgG controls; lysis in RIPA buffer with 250 mM or 500 mM NaCl, agarose beads overnight at 4°C, washes with RIPA (500 mM NaCl); Western blot.
Assay [2] addresses FLAG-tagged p53 (UniProt P04637). Briefly: co-IP; FLAG-tagged SIRT6 or FLAG-tagged p53 ectopically expressed individually in HEK293 cells; FLAG immunoprecipitates blotted for the endogenous partner.
In assay [3] the target is FLAG-tagged full length SIRT6 (UniProt Q8N6T7). The description is as above.
Assay [4] concerns the target FLAG-tagged p53 (UniProt P04637). Briefly: pull-down; in vitro binding of recombinant human SIRT6 and FLAG-p53 eluted from HEK293 cells; p53 pulled down, Western blot; both purified.

These are yes or no findings as the source states them, for the method shown. For some of these results: Binding seen in cells or lysates may run through a third protein. Some results given as binding are weak or reduced against the parent protein; the word gives no strength.

Take “SIRT6 (endogenous, HEK293 cells) (from UniProt Q8N6T7 1-355) (enzyme)”: the binding result in assay [1] and in assay [2] was “binds” throughout.
For the substance “p53 (endogenous, HEK293 cells) (from UniProt P04637 1-393)”, the binding entry in assay [3] is on record as “binds”.
On to “recombinant human SIRT6 (from UniProt Q8N6T7 1-355) (enzyme)”, for which the binding entry in assay [4] is on record as “binds”.

The values above are taken from PMC5825207.
